These results are taken from PubChem BioAssay AID256 (DTP/NCI, 2004).

The assay deals with CD2F1 mice, L1210 leukemia ip, survival T/C. As to the kind of experiment: NCI In Vivo Anticancer Drug Screen. Data for tumor model L1210 Leukemia (intraperitoneal) in CD2F1 (CDF1) mice. The settings on record: higher T/C = longer survival. A digest of the protocol: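 Each value reflects a quotient of treated over vehicle control outcomes in mice with a transplanted tumor.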

Where [1] appears, read: T/C endpoint: mean survival time, dose: 400.0 mg/kg/injection, schedule: Q01DX001 (ip), vehicle: saline.
Setting [2] is: T/C endpoint: mean survival time, dose: 200.0 mg/kg/injection, schedule: Q01DX009 (ip), vehicle: saline with Tween-80.
Setting [3] is: T/C endpoint: mean survival time, dose: 400.0 mg/kg/injection, schedule: Q04DX003 (ip), vehicle: saline with Tween-80.
The mark [4] stands for this setting: T/C endpoint: mean survival time, dose: 300.0 mg/kg/injection, schedule: Q01DX001 (ip), vehicle: saline.
Setting [5] is: T/C endpoint: mean survival time, dose: 100.0 mg/kg/injection, schedule: Q01DX009 (ip), vehicle: saline with Tween-80.
The mark [6] stands for this setting: T/C endpoint: mean survival time, dose: 100.0 mg/kg/injection, schedule: Q04DX002 (ip), vehicle: saline with Tween-80.
The mark [7] stands for this setting: T/C endpoint: mean survival time, dose: 100.0 mg/kg/injection, schedule: Q04DX003 (ip), vehicle: saline with Tween-80.

Structures are written as SMILES. The list shows only some results of the screen, not a fair sample: it is rich in T/C values a quarter to a half above the control, in often repeated tests (any T/C) and in doses without a T/C. Other doses and runs of a compound stand elsewhere. T/C: endpoint of the treated group in % of that of the vehicle group. Some entries give survivors of the animals treated and no T/C: the source holds a T/C of zero for them, seemingly a mark for toxic or unscored doses. Some doses without a T/C left all or most animals alive at the check, yet need not have been tolerated: the source hardly ever lists a survival T/C far under the control, and the zero likely stands for such cases as well. Counts of survivors are from the toxicity check (mostly the fifth day) where no day follows; animals may have died later. Schedule codes are those of the source, read here as Q, the interval in days (D) or hours (H), X, the number of doses. Some entries hold several experiments; their values stand side by side, smallest first. Some structures stand for samples that the source files as different forms (salt, stereo form or complex); doses refer to the form tested. Where survival is the endpoint, the PubChem record calls one and a half times the control and up active, and a quarter to a half above the control has no call in these data; cut-offs in other NCI protocols can differ. Some T/C values carry the count of animals alive at the toxicity check (mostly the fifth day); where none is given, no animal had died by that day.

`N[C@@H](Cc1c[nH]c2ccccc12)C(=O)Nc1nncs1`: the T/C (T/C endpoint: median survival time, dose: 133.0 mg/kg/injection, schedule: Q03HX027 (ip), vehicle: saline) was 134 and 142 % of control; the T/C (T/C endpoint: median survival time, dose: 221.67 mg/kg/injection, schedule: Q03HX027 (ip), vehicle: saline) was 146 % of control. In addition, the survivor count is given as 5 of 6 (T/C endpoint: median survival time, dose: 370.0 mg/kg/injection, schedule: Q03HX027 (ip), vehicle: saline) and 3 of 6 (T/C endpoint: median survival time, dose: 800.0 mg/kg/injection, schedule: Q01DX009 (ip), vehicle: saline).
For `Cc1c(O)ccc([N+](=O)[O-])c1O`, the survivor count (T/C endpoint: mean survival time, dose: 50.0 mg/kg/injection, schedule: Q04DX003 (ip), vehicle: saline with Tween-80) is on record as 2 of 6.
For `O=C(O)C1CC1`, the survivor count under setting [1] is given as 0 of 4.
As for `Cc1cn(C2CC3[O][Sn]([CH3])([CH3])[O]CC3O2)c(=O)[nH]c1=O` (centres undefined), the survivor count (T/C endpoint: mean survival time, dose: 100.0 mg/kg/injection, schedule: Q01DX005 (ip), vehicle: other) was 0 of 6 and the survivor count (T/C endpoint: mean survival time, dose: 200.0 mg/kg/injection, schedule: Q01DX005 (ip), vehicle: other) is given as 0 of 6.
Regarding `O=c1[nH]ccc2occc12`, the survivor count is reported as 2 of 6 under setting [2] and 2 of 6 under setting [3].
In the case of `CN(C)N=Nc1ccc(NC(N)=O)cc1`, the T/C (T/C endpoint: mean survival time, dose: 18.75 mg/kg/injection, schedule: Q01DX009 (ip), vehicle: Klucel (hydroxypropylcellulose) (HPC)) was 145 % of control; the T/C (T/C endpoint: mean survival time, dose: 25.0 mg/kg/injection, schedule: Q01DX009 (ip), vehicle: saline) is 127 % of control; the T/C (T/C endpoint: mean survival time, dose: 50.0 mg/kg/injection, schedule: Q01DX009 (ip), vehicle: saline) was 148 % of control. Further, the survivor count runs as follows: (T/C endpoint: mean survival time, dose: 75.0 mg/kg/injection, schedule: Q01DX009 (ip), vehicle: Klucel (hydroxypropylcellulose) (HPC)) 5 of 6; (T/C endpoint: mean survival time, dose: 150.0 mg/kg/injection, schedule: Q01DX009 (ip), vehicle: Klucel (hydroxypropylcellulose) (HPC)) 0 of 6; (T/C endpoint: mean survival time, dose: 300.0 mg/kg/injection, schedule: Q01DX009 (ip), vehicle: Klucel (hydroxypropylcellulose) (HPC)) 0 of 6.
Regarding `O=C(O)c1c[nH]c2c(Cl)cccc2c1=O`, the survivor count under setting [1] is 0 of 6.
`CC(=O)OCCN(CCOC(C)=O)CCOC(C)=O`: the survivor count was 4 of 6 (T/C endpoint: mean survival time, dose: 200.0 mg/kg/injection, schedule: Q04DX003 (ip), vehicle: Klucel (hydroxypropylcellulose) (HPC)) and 2 of 6 (T/C endpoint: mean survival time, dose: 400.0 mg/kg/injection, schedule: Q04DX003 (ip), vehicle: Klucel (hydroxypropylcellulose) (HPC)).
Turning to `Cc1ccc([Si](C)(C)c2ccccc2)cc1`, the survivor count under setting [4] is 0 of 6.
Turning to `CCCCCCCCC(C)C(=O)N1CCCC1C(=O)N1C(CC(=O)CC)CC(C)CC1C(=O)NC(C)C(=O)NC(C)(C)C(=O)NC(C)(C)C(=O)NC(C(=O)NC(C)C(=O)NC(C)(C)C(=O)NC(C)(C)C(=O)NC(C)CN(C)CCO)C(C)CC` (centres undefined), the survivor count by setting is: (T/C endpoint: mean survival time, dose: 5.0 mg/kg/injection, schedule: Q01DX009 (ip), vehicle: Klucel (hydroxypropylcellulose) (HPC)) 1 of 10; (T/C endpoint: mean survival time, dose: 10.0 mg/kg/injection, schedule: Q01DX009 (ip), vehicle: Klucel (hydroxypropylcellulose) (HPC)) 0 of 10.
In the case of `COc1ccc(OC)c(N=C2C(=O)Nc3ccc(Br)cc32)c1`, for the setting “T/C endpoint: mean survival time, dose: 400.0 mg/kg/injection, schedule: Q04DX002 (ip), vehicle: saline with Tween-80”, the survivor count was 3 of 3.
As to `O=S=NNc1ccccc1`, the survivor count was 3 of 6 under setting [5], 3 of 6 under setting [2] and 1 of 6 under setting [3].
Regarding `CCO/C(=C\[P+](c1ccccc1)(c1ccccc1)c1ccccc1)c1ccccc1`, the survivor count (T/C endpoint: mean survival time, dose: 75.0 mg/kg/injection, schedule: Q01DX001 (ip), vehicle: saline) is given as 0 of 6; the survivor count (T/C endpoint: mean survival time, dose: 150.0 mg/kg/injection, schedule: Q01DX001 (ip), vehicle: saline) is 0 of 6; the survivor count under setting [4] was 0 of 6.
Turning to `O=C1C=C/C(=N\N=C2/C=CC(=O)O2)O1`, the survivor count runs as follows: under setting [6], 0 of 3; (T/C endpoint: mean survival time, dose: 200.0 mg/kg/injection, schedule: Q04DX002 (ip), vehicle: saline with Tween-80) 0 of 3.
Regarding `O=C1C(NCC(O)CO)=C(N2CC2)C(=O)C(NCC(O)CO)=C1N1CC1` (centres undefined), the survivor count by setting is: (T/C endpoint: mean survival time, dose: 2.5 mg/kg/injection, schedule: Q01DX009 (oral), vehicle: saline) 3 of 6; (T/C endpoint: mean survival time, dose: 5.0 mg/kg/injection, schedule: Q01DX009 (oral), vehicle: saline) 3 of 5 and 6 of 6; (T/C endpoint: mean survival time, dose: 10.0 mg/kg/injection, schedule: Q01DX009 (oral), vehicle: saline) 6 of 6; (T/C endpoint: median survival time, dose: 16.0 mg/kg/injection, schedule: Q01DX009 (ip), vehicle: saline) 9 of 10. In addition, under “T/C endpoint: median survival time, dose: 1.0 mg/kg/injection, schedule: Q01DX009 (ip), vehicle: saline”, the T/C was 148 % of control.
On to `COc1cc(N)ccc1NC(=O)c1ccccc1`, for which, for the setting “T/C endpoint: mean survival time, dose: 50.0 mg/kg/injection, schedule: Q01DX009 (ip), vehicle: saline with Tween-80”, the survivor count is 3 of 6.
Consider `Nc1ccc2cc3ccccc3cc2c1`, for which the survivor count reads like this: under setting [5], 6 of 6; under setting [2], 4 of 6; (T/C endpoint: mean survival time, dose: 400.0 mg/kg/injection, schedule: Q01DX009 (ip), vehicle: saline with Tween-80) 1 of 6.
Take `O=C(Nc1ccccc1)c1c(O)[nH]c(=O)[nH]c1=O`: the T/C was 134 % of control (T/C endpoint: median survival time, dose: 50.0 mg/kg/injection, schedule: Q01DX009 (ip), vehicle: saline with Tween-80); 142, 143, 149 % of control (T/C endpoint: median survival time, dose: 100.0 mg/kg/injection, schedule: Q01DX009 (ip), vehicle: saline with Tween-80); 134 [5 of 6 alive] and 137 % of control (T/C endpoint: median survival time, dose: 200.0 mg/kg/injection, schedule: Q01DX009 (ip), vehicle: saline with Tween-80). In addition, the survivor count (T/C endpoint: median survival time, dose: 400.0 mg/kg/injection, schedule: Q01DX009 (ip), vehicle: saline with Tween-80) was 2 of 6.
Consider `COC1CCC(/C=C(\C#N)C2CCC([N+](=O)[O-])CC2)CC1` (centres undefined), for which the survivor count by setting is: under setting [5], 3 of 3 and 6 of 6; under setting [2], 3 of 3.
As to `Oc1cc(O)c(O)cc1O`, the survivor count is, setting by setting: under setting [7], 1 of 6; (T/C endpoint: mean survival time, dose: 200.0 mg/kg/injection, schedule: Q04DX003 (ip), vehicle: saline with Tween-80) 0 of 6; under setting [3], 0 of 6.
Take `C1CC[N-]CC1.Oc1ccccc1C=NCCN=Cc1ccccc1O.[Co]`: the survivor count (T/C endpoint: mean survival time, dose: 6.25 mg/kg/injection, schedule: Q04DX002 (ip), vehicle: saline with Tween-80) is reported as 1 of 3; the survivor count (T/C endpoint: mean survival time, dose: 25.0 mg/kg/injection, schedule: Q04DX002 (ip), vehicle: saline with Tween-80) is on record as 0 of 3; the survivor count (T/C endpoint: mean survival time, dose: 50.0 mg/kg/injection, schedule: Q04DX002 (ip), vehicle: saline with Tween-80) is given as 0 of 3; the survivor count under setting [6] is 0 of 3.
`COc1ccc2c3c1OC1C(=O)C4CC5(c6c(O)ccc(O)c64)C(C2)N(C)CCC315` (centres undefined): the survivor count under setting [7] is recorded as 6 of 6.
